From publication PMC7819943, “Rice protein-binding microarrays: a tool to detect cis-acting elements near promoter regions in rice”
The other results are listed elsewhere or left out.

The sequences below were run against T1, OsSMF1 (Oryza sativa, UniProt Q6ZLB0 1-436) (assay: protein-binding microarray (RPBM); PBS, 2% BSA, 51.3 ng/ul salmon testes DNA, 50 uM zinc acetate, 200 nM TF, 25 C, 1 h; high values mean tight binding). Details: protein: recombinant; tags: N-terminal polyhistidine and DsRed monomer fusion (pET32a); chain copies: 2; label: CyDye5-dUTP incorporated in the synthesized complementary strand; 3' TTTTT single-stranded linker to array surface; dsDNA, one strand shown.
T1 sequence: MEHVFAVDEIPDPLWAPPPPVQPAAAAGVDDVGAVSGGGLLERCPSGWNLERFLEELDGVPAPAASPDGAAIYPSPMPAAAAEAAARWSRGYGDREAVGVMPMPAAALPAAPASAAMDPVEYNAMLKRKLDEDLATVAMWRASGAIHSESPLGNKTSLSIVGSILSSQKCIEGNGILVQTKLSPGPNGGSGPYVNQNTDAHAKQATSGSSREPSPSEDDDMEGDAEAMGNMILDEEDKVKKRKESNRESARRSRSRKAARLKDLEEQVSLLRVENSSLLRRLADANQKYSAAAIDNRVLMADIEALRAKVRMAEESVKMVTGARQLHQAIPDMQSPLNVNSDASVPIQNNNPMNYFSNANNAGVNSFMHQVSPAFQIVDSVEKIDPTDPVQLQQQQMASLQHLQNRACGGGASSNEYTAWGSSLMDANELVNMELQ
Summary of the method: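 Using Ni–NTA, transcription factors fused N-terminally to polyhistidine and DsRed were purified after expression in E. coli BL21-CodonPlus. These were incubated at 200 nM with a blocked, double-stranded custom Agilent array for 1 h at 25 °C in a buffer containing 50 µM zinc acetate, and the array was washed. The binding signal is per-feature fluorescence intensity (arbitrary units) on an Axon 4000B scanner.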
For “TAATAGGGTGTGGCAAATCGTTATTTGCCATGTCATAATGCGGAGTCACCTAGTGCAG”, the binding signal was 7010 fluorescence intensity (a.u.).
In the case of “GTAGGTGACCCCGTCCGGCTCGAATCCCTGCTCCTCGAGCCGGAGTCACCTAGTGCAG”, the binding signal is reported as 25200 fluorescence intensity (a.u.).
In the case of “AGAGGGGATGGGCCCACGTGTCAGGTTGCCCTCCCGTCCACGGAGTCACCTAGTGCAG”, the binding signal is reported as 7240 fluorescence intensity (a.u.).
With “CTCTTTTGTTAGCTACAACACGTGGCCAGCATCGACGTAGCGGAGTCACCTAGTGCAG” the binding signal was 6430 fluorescence intensity (a.u.).
For “GAGATCATGGTGATGAGGTCACTCAAGGGACACCCCAATGCGGAGTCACCTAGTGCAG”, the binding signal was 3500 fluorescence intensity (a.u.).
“GACTAGGAATACACGTGTTCATGTAGTAAGCTTTTAGTGCCGGAGTCACCTAGTGCAG” was tested, and the binding signal was 11200 fluorescence intensity (a.u.).
In the case of “CATATGCCATCTAATCATCCTTGTCTGATGTCATTTATTCCGGAGTCACCTAGTGCAG”, the binding signal is reported as 5870 fluorescence intensity (a.u.).
In the case of “AAGAAGCGTGTTAACACGCACGCACGCGCTTCTTCCCTCCCGGAGTCACCTAGTGCAG”, the binding signal is reported as 3730 fluorescence intensity (a.u.).
“AGGTTTTGTAGGGGTGGTGGACTGGGCCACGGCCCATGGGCGGAGTCACCTAGTGCAG” was tested, and the binding signal was 3430 fluorescence intensity (a.u.).
“TAGAGAGAGAGGAGCTGACGTGGCCAAGCTGACATGTGGGCGGAGTCACCTAGTGCAG” was tested, and the binding signal was 9190 fluorescence intensity (a.u.).
In the case of “ACAGTGACAGGTGTAAACTAGTGGCAGTGATGGTGGAGGTCGGAGTCACCTAGTGCAG”, the binding signal is reported as 3820 fluorescence intensity (a.u.).
For “CCTGAGCGGAGCTGGGACGTGGACGCGCCGCAAAAGCGAACGGAGTCACCTAGTGCAG”, the binding signal was 6670 fluorescence intensity (a.u.).
“GCGCTGCAAGCGCTCGCCGCTGACACCGGCGGCTTCCTGGCGGAGTCACCTAGTGCAG” was tested, and the binding signal was 4670 fluorescence intensity (a.u.).
“TGGAACTGTTACCCTGTAGCAGAATGCAGCGTTCTCGCGTCGGAGTCACCTAGTGCAG” was tested, and the binding signal was 3160 fluorescence intensity (a.u.).
“AGGGTGGTGACAGGTTTGTCAGGTCAATCAAAACCCGCCGCGGAGTCACCTAGTGCAG” was tested, and the binding signal was 3180 fluorescence intensity (a.u.).
With “CAGCCATCATTGGGCCTGTCCCCATCTTCCATTGGGCCGGCGGAGTCACCTAGTGCAG” the binding signal was 32600 fluorescence intensity (a.u.).
For “CCGGCCACTCCCTTCAGCGAAATCCGTAGTCAGCAAGTTGCGGAGTCACCTAGTGCAG”, the binding signal was 4390 fluorescence intensity (a.u.).
“CAGCTGCGCTTGGTGCTTCTGCTTTTGTAGCACATCATCACGGAGTCACCTAGTGCAG” was tested, and the binding signal was 37100 fluorescence intensity (a.u.).
With “GTGTGGCCCCATGCTTGCAAATGCTAGGCCTCATTGTTTTCGGAGTCACCTAGTGCAG” the binding signal was 22500 fluorescence intensity (a.u.).
In the case of “GTTTTGTGATTTGGTACATGTGGTAGCATTCACCAAATGTCGGAGTCACCTAGTGCAG”, the binding signal is reported as 39600 fluorescence intensity (a.u.).
With “CCTGTTACGTGGTACATGAGAGTGGTAAGCCATTTCTCTTCGGAGTCACCTAGTGCAG” the binding signal was 4140 fluorescence intensity (a.u.).
With “CGGCGGCAACACTGTCACTGTTCCCATCTTGAATTATGTCCGGAGTCACCTAGTGCAG” the binding signal was 3270 fluorescence intensity (a.u.).
With “AAGGCTTTGGGCCTCTTGGTCCAGTCAAAGGATAAACCCACGGAGTCACCTAGTGCAG” the binding signal was 3600 fluorescence intensity (a.u.).
In the case of “CATGTTTGTTGCTGCTGACGGTGGTGATGGCGTGTGAGCACGGAGTCACCTAGTGCAG”, the binding signal is reported as 6850 fluorescence intensity (a.u.).
In the case of “TCGCCCTCGACTCCGCTCTCCTGCGCTGCCCGATTTCCATCGGAGTCACCTAGTGCAG”, the binding signal is reported as 3330 fluorescence intensity (a.u.).
With “GAGAAGAGATTGCTGACTAGGATTGTTGGCCCCACATTTTCGGAGTCACCTAGTGCAG” the binding signal was 18500 fluorescence intensity (a.u.).
With “CCAGTAGCCCGTAGTCACGTTCCCAACCCCGCCCAGTGATCGGAGTCACCTAGTGCAG” the binding signal was 4860 fluorescence intensity (a.u.).
For “CTGATGTCAACCGTCGAGTCAAGCGGTGGTGGTGGTGGCGCGGAGTCACCTAGTGCAG”, the binding signal was 3360 fluorescence intensity (a.u.).
“GCACATCTTCCTTAATTGCCAAAAGAGTAAATTTCACGAACGGAGTCACCTAGTGCAG” was tested, and the binding signal was 43300 fluorescence intensity (a.u.).
For “TCACCTAGGCCGAACCCTACCCCGCTGCACACGTGGACGTCGGAGTCACCTAGTGCAG”, the binding signal was 17800 fluorescence intensity (a.u.).
With “AGAGCAATTGACTGACATACCATTATTAAGATGAACTGATCGGAGTCACCTAGTGCAG” the binding signal was 3370 fluorescence intensity (a.u.).
For “CTAACTTAAAATAGAATCAAACAGTACAACAAATATAAATCGGAGTCACCTAGTGCAG”, the binding signal was 9880 fluorescence intensity (a.u.).
For “GATCCGCTCAAAATCGCGCATCCAAACCCTCGCCCTCCTCCGGAGTCACCTAGTGCAG”, the binding signal was 3440 fluorescence intensity (a.u.).
“CTTATTCAAGCCATGCATTCTAAGGTGACTGACATGTGGGCGGAGTCACCTAGTGCAG” was tested, and the binding signal was 3770 fluorescence intensity (a.u.).
With “GCGGTAACAAATCAGCGTGGACACCTGGCGTCACGCCATTCGGAGTCACCTAGTGCAG” the binding signal was 4920 fluorescence intensity (a.u.).
In the case of “ATACACTTCAGATTTGCTATGATCACTGACACTGACACGACGGAGTCACCTAGTGCAG”, the binding signal is reported as 3620 fluorescence intensity (a.u.).
In the case of “CCGGTGACTCAGTAATCACTTCGCACATTAACTCTCTCTCCGGAGTCACCTAGTGCAG”, the binding signal is reported as 6080 fluorescence intensity (a.u.).
“AGTGTCTAGTACTAGTTTCTTGATGACGTGGAGTTTATAACGGAGTCACCTAGTGCAG” was tested, and the binding signal was 14100 fluorescence intensity (a.u.).
In the case of “GTTTTGGTCATTTTGCTATATGACTTTGTTTCAATAATTTCGGAGTCACCTAGTGCAG”, the binding signal is reported as 3990 fluorescence intensity (a.u.).
With “AAGATGACGGTTTTAGCCCGTCACCAATGTGTGTCATCAGCGGAGTCACCTAGTGCAG” the binding signal was 8880 fluorescence intensity (a.u.).
For “AACAAGACAGTGCTGTTGCTGAAACCAAACTTGGGCCTTACGGAGTCACCTAGTGCAG”, the binding signal was 16800 fluorescence intensity (a.u.).
With “TCCTCATCCCTGCTTCCTCTTCTACACCTCATTTTCCGCTCGGAGTCACCTAGTGCAG” the binding signal was 3530 fluorescence intensity (a.u.).
